Our source for the percent viability, mCherry and percent effect values is the supplement of paper PMC8256030.

One test relates to HEK293T. The experiment in a line: percent viability (nuclei count) relative to control; higher = more viable cells. The settings on record: 10 µM; 24 h.
For test [1], the system named is SARS-CoV-2 -1 PRF reporter mCherry-FSE-GFP(-1). In words: mCherry (red) intensity as percent of control; higher = higher upstream reporter expression. To be noted: 10 µM; 24 h; HEK293T.
The test system is the same in test [2]. In words: percent effect, decrease of GFP/mCherry ratio (-1 PRF reporter) relative to controls; higher = stronger frameshift inhibition. The settings on record: 10 µM; 24 h; HEK293T.

“And” between values parts separate entries of the source, which are not always exact repeats. Equal entries are not always repeated. The list shows a part of the results. Repeats in this data set agree poorly, so a single value says little.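 HEK293T cells were given each compound shortly before transfection with a reporter in which red mCherry is followed by the SARS-CoV-2 frameshift element and then GFP in the −1 frame, so GFP appears only after frameshifting.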

Consider `CCC1(c2cccc(O)c2)CCCCN(C)C1` (stereo not given) [meptazinol], for which the percent viability with HEK293T was 143%. The mCherry in test [1] stood at 66.8%. Besides, in test [2], the percent effect was 0.399%.
Take `O=C1Nc2ccc(Cl)cc2C(c2ccccc2Cl)=NC1O` (stereo not given) [lorazepam]: the percent viability with HEK293T was 340%. The compound further returned a mCherry in test [1] of 88.8%. Moreover, the percent effect in test [2] was -4.89%.
On to `CC1Sc2c(C(=O)O)c(=O)c3cc(F)c(N4CCNCC4)cc3n21` (stereo not given) [ulifloxacin], for which the percent viability in the test with HEK293T amounted to 174%. Besides, the mCherry in test [1] was 98.1%. Also, the percent effect in test [2] is -0.726%.
For the compound `C=CCN1CC[C@]23c4c5ccc(O)c4O[C@H]2/C(=N/N=C2\CC[C@@]4(O)[C@H]6Cc7ccc(O)c8c7[C@@]4(CCN6CC=C)[C@H]2O8)CC[C@@]3(O)[C@H]1C5` [Naloxonazine], in the test with HEK293T, the percent viability amounted to 226%. The mCherry in test [1] is 78%. In test [2], the percent effect is -1.17%.
Regarding `NN=C(N)N`, the percent viability with HEK293T came out at 168%. The same compound registered a mCherry in test [1] of 107%. Also, the percent effect in test [2] is -7.84%.
Consider `Cc1nn(C)c2c1C(c1ccccc1F)=NCC(=O)N2C` [zolazepam], for which the percent viability in the test with HEK293T was 115%. This compound displayed a mCherry in test [1] of 66.3%. In addition, the percent effect in test [2] is -4.52%.
Regarding `Oc1ccc2[nH]cc(CCCCN3CC=C(c4ccccc4)CC3)c2c1` [roxindole], the percent viability in the test with HEK293T came out at 181%. In test [1], this compound displayed a mCherry of 61.7%. Besides, the percent effect in test [2] was -4.92%.
The like results for `COC(=O)c1cncn1C(C)c1ccccc1` (stereo not given) [metomidate] were, in that order, 200%, 79.8% and -7.86%.
For the compound `C=CCN1CC[C@]23CCCC[C@H]2[C@H]1Cc1ccc(O)cc13` [Levallorphan], the percent viability with HEK293T amounted to 305%. Moreover, the mCherry in test [1] was 92.8%. In addition, the percent effect in test [2] was -6.62%.
Turning to `COc1ccc(CN2CCNCC2)c(OC)c1OC`, the percent viability in the test on HEK293T turned out to be 96.2%. In test [1], this compound came in with a mCherry of 111%. Further, in test [2], the percent effect is 1.06%.
The like results for `CCC1(CC)C(=O)NC(=O)N(C)C1=O` [metharbital] were, in that order, 351%, 98.6% and -5.84%.
With `Oc1cc(Cl)ccc1Oc1ccc(Cl)cc1Cl` [triclosan], the percent viability with HEK293T was found to be 214%. Besides, the mCherry in test [1] worked out at 75.6%. Further, the percent effect in test [2] is -4.21%.
Consider `OC(c1ccccc1)(c1ccccc1)C1CN2CCC1CC2` (stereo not given) [quifenadine], for which, in the test with HEK293T, the percent viability turned out to be 506%. The compound further showed a mCherry in test [1] of 59%. The percent effect in test [2] was determined as 1.08%.
For the compound `COc1ccc2c3c1O[C@H]1[C@@H](O)CC[C@H]4[C@@H](C2)N(C)CC[C@@]341` [dihydrocodeine], the percent viability in the test on HEK293T worked out at 263%. In test [1], this compound registered a mCherry of 97.1%. In test [2], the percent effect is -3.51%.
With `N[C@@H](Cc1ccc(N(CCCl)CCCl)cc1)C(=O)O` [Melphalan], in the test with HEK293T, the percent viability came to 179%. In addition, in test [1], the mCherry is 34.2%. In addition, the percent effect in test [2] is -0.104%.
In the case of `C[C@]12N[C@H](Cc3ccccc31)c1ccccc12` [dizocilpine], the percent viability in the test with HEK293T is 135%. The mCherry in test [1] was 73.5%. Also, in test [2], the percent effect was -12%.
The like results for `CC(C)(O)C(Cl)(Cl)Cl` were, in that order, 340%, 107% and -1.77%.
`C[C@H]1[C@H](c2ccccc2)OCCN1C` [Bontril]: the percent viability in the test on HEK293T turned out to be 36.7%. For the same compound, the mCherry in test [1] was found to be 70.5%. Besides, the percent effect in test [2] is -9.63%.
For `CC(c1ccccc1)C(C)(C)N` (stereo not given) [pentorex], in the test on HEK293T, the percent viability stood at 201%. Besides, the mCherry in test [1] was found to be 101%. Also, in test [2], the percent effect was -3.14%.
The like results for `NC(=O)OCC(O)c1ccccc1` (stereo not given) [styramate] were, in that order, 207%, 92.3% and -9.94%.
Consider `C[C@@H]1O[C@@H](O[C@@H]2C=C3CC[C@@H]4[C@H](CC[C@]5(C)[C@@H](c6ccc(=O)oc6)CC[C@]45O)[C@@]3(C)CC2)[C@H](O)[C@H](O)[C@H]1O` [proscillaridin], for which, in the test on HEK293T, the percent viability was found to be 5.16%. In test [1], this compound came in with a mCherry of 14.8%. In test [2], the percent effect was -14.7%.
Consider `NP(N)(=O)NC(=O)c1ccc(F)cc1` [flurofamide], for which, in the test with HEK293T, the percent viability amounted to 136%. In test [1], this compound yielded a mCherry of 80.6%. The percent effect in test [2] stood at 1.5%.
Take `CCOC(=O)CC(SP(=S)(OC)OC)C(=O)OCC` (stereo not given): the percent viability with HEK293T came to 172%. This compound also showed a mCherry in test [1] of 106%. Moreover, in test [2], the percent effect is -3.38%.
Turning to `CN1CC[C@]23c4c5ccc(O)c4O[C@H]2[C@@H](O)C=C[C@H]3[C@H]1C5`, the percent viability in the test with HEK293T came out at 254%. For the same compound, the mCherry in test [1] was determined as 87%. In test [2], the percent effect is -1.69%.
Turning to `C[C@]1(O)CC[C@H]2[C@@H]3CCC4=CC(=O)CCC4=C3C=C[C@@]21C` [metribolone], in the test on HEK293T, the percent viability is 150%. In test [1], this compound gave a mCherry of 71.2%. Further, the percent effect in test [2] was -9.14%.
As to `CCc1cc2c(s1)N(C)C(=O)CN=C2c1ccccc1Cl` [clotiazepam], the percent viability in the test with HEK293T is 217%. The same compound had a mCherry in test [1] of 99.9%. Moreover, the percent effect in test [2] was 3.64%.
In the case of `Cc1cccc(C(C)c2c[nH]cn2)c1C` (stereo not given) [medetomidine], the percent viability in the test with HEK293T stood at 98.6%. The compound also came in with a mCherry in test [1] of 86.8%. The percent effect in test [2] amounted to 0.129%.
For the compound `CCCC(C)C1(CC)C(=O)NC(=S)NC1=O` (stereo not given) [Trapanal], the percent viability with HEK293T was determined as 305%. In test [1], the mCherry turned out to be 95.4%. Also, in test [2], the percent effect is -4.5%.
For `CCC1(CC)C(=O)NC(=O)NC1=O` [barbital], the percent viability in the test on HEK293T is 130% and 321%. In addition, in test [1], the mCherry is 106% and 85.9%. Moreover, the percent effect in test [2] is -1.54% and -5.26%.
Consider `COc1ccc(OC)c(C(O)C(C)N)c1` (stereo not given) [methoxamine], for which the percent viability with HEK293T was determined as 307%. Also, in test [1], the mCherry came to 93.2%. Further, the percent effect in test [2] is -3.24%.
In the case of `CN[C@H]1CCc2cc(OC)c(OC)c(OC)c2-c2ccc(OC)c(=O)cc21` [demecolcine], the percent viability in the test on HEK293T turned out to be 25.1%. In test [1], the mCherry was found to be 42.7%. Also, in test [2], the percent effect is -17.6%.
For `C[C@H]1[C@H]2Cc3ccc(O)cc3[C@]1(C)CCN2CC1CC1` [cyclazocine], the percent viability in the test with HEK293T came to 32.4%. Also, the mCherry in test [1] turned out to be 169%. Also, in test [2], the percent effect was -3.55%.
For the compound `Oc1ccc(Cl)cc1Cc1cc(Cl)ccc1O` [dichlorophen], the percent viability with HEK293T is 347%. This compound also returned a mCherry in test [1] of 92.6%. Besides, in test [2], the percent effect was -4.01%.
Take `CNC(=O)Oc1ccccc1C(=O)Nc1ccccc1` [anilamate]: in the test on HEK293T, the percent viability turned out to be 130%. Besides, the mCherry in test [1] is 80.2%. Besides, the percent effect in test [2] is -6.66%.
The like results for `C#C[C@]1(O)CC[C@H]2[C@@H]3CCC4=CC(=O)CCC4=C3C=C[C@@]21CC` [gestrinone] were, in that order, 254%, 90.4% and -2.01%.
